Measurements reported in PubChem BioAssay AID1259254 (NCATS, 2017)
Here is a random part of about 59,000 reagents. Of all reagents, about 1,550 (2.6%) were called active. 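G2 share is only a proxy for re-replication; each gene was hit by three separate siRNAs, and active genes were retested.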 The raw values are shown without normalisation. Entries without a mark were called inactive. Reagents against one gene are numbered here. Not given: the amount of reagent.

Screen: 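Finding genes that stop cells copying their DNA twice in one cycle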 (primary screen)
Cell system: human HCT116 colorectal cancer cells
Reagent: single siRNA against human genes
Duration: 3 days
Read-out: 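Nuclei stained with Hoechst and imaged; cell-cycle phase assigned by DNA content; G2 share scaled per plate, non-targeting siRNA 0%, GMNN siRNA 100%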
Reading the numbers: G2 robust z-score and G2 cells, % of GMNN control: higher = more G2 cells, more excess DNA replication; raw share of cells in G2: higher = larger share of cells with G2 DNA content
Call rule: 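Active siRNAs have a G2 robust z of 5 or more median absolute deviations over the median, which in these data means about 38% or higher of GMNN control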

target gene	reagent no.	G2 robust z-score	G2 cells, % of GMNN control	raw share of cells in G2 (%)
MSL2 (MSL complex subunit 2)	1	1.24	11.7	9.02
MSL2 (MSL complex subunit 2)	2	3.04	24.3	14.2
MSL2 (MSL complex subunit 2)	3	0.607	7.24	5.45
TIGIT (T cell immunoreceptor with Ig and ITIM domains)	1	1.32	12.3	8
TIGIT (T cell immunoreceptor with Ig and ITIM domains)	2	0.616	7.3	5.41
TIGIT (T cell immunoreceptor with Ig and ITIM domains)	3	-0.583	-1.13	2.4
KRTAP3-3 (keratin associated protein 3-3)	1	2	17	8.32
KRTAP3-3 (keratin associated protein 3-3)	2	0.0921	3.62	5.62
KRTAP3-3 (keratin associated protein 3-3)	3	2.92	23.5	10.4
ADH5P4 (ADH5 pseudogene 4)	1	0.35	5.43	7.08
ADH5P4 (ADH5 pseudogene 4)	2	0.269	4.86	6.06
ADH5P4 (ADH5 pseudogene 4)	3	4.05	31.5	19.5
CDK5 (cyclin dependent kinase 5)	1	1.46	13.3	9.99
CDK5 (cyclin dependent kinase 5)	2	1.41	12.9	9.75
CDK5 (cyclin dependent kinase 5)	3	-0.605	-1.29	3.57
KLKB1 (kallikrein B1)	1	4.12	32	16.7
KLKB1 (kallikrein B1)	2	-0.405	0.121	4.95
KLKB1 (kallikrein B1)	3	-0.0179	2.84	4.97
PDZK1 (PDZ domain containing 1)	1	1.18	11.3	9.77
PDZK1 (PDZ domain containing 1)	2	0.602	7.2	7.07
PDZK1 (PDZ domain containing 1)	3	-0.723	-2.12	2.59
RNF126 (ring finger protein 126)	1	-1.51	-7.68	1.57
RNF126 (ring finger protein 126)	2	2.28	19	12
RNF126 (ring finger protein 126)	3	0.172	4.18	4.47
FAM219A (family with sequence similarity 219 member A)	1	0.43	5.99	5.75
FAM219A (family with sequence similarity 219 member A)	2	-1.13	-5	1.42
FAM219A (family with sequence similarity 219 member A)	3	-0.0255	2.79	4.08
HECTD2 (HECT domain E3 ubiquitin protein ligase 2)	1	-0.16	1.84	6.84
HECTD2 (HECT domain E3 ubiquitin protein ligase 2)	2	0.732	8.12	7.67
HECTD2 (HECT domain E3 ubiquitin protein ligase 2)	3	-0.765	-2.41	3.69
